Data published in PubChem BioAssay AID1347423 (Functional Genomics Laboratory (NCATS/FGL), 2020).
Screen size: about 52,000 sequences; about 210 (0.4%) were called active.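 Rule for the calls: active = gene whose silencing raises cell survival under the drug, median off-target-corrected z-score across its silencing RNAs 2 or more; inactive = the rest.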 This is one part of the list.

Test: Resistance to Poly (ADP-Ribose) Polymerase inhibitor: Gene Identification via Genome-wide siRNA Screen
Conditions: mouse BRCA2 R2336H ES cells, olaparib, CellTiter-Glo viability; stronger effect = higher value
In short: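 Genome-wide siRNA screen (3 siRNAs/gene, 20 nM) in mouse ES cells carrying hypomorphic BRCA2 R2336H; olaparib 500 nM added 48 h post-transfection, CellTiter-Glo viability 72 h later. Normalized to plate-median negative control; MAD z-scores, gene median, seed-adjusted.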

Sequence | z-score
GGAUAUCAUCGUGUUUAUUTT against Vps45 | inactive: 1.12
GCUCAACAAGGAUACGGUGTT against Tnfrsf11a | inactive: -1.79
GGCCAUCAUGAAGAUUGCCTT against Htr2c | inactive: 0.298
GCAUCUGCAUUUUUUGCUATT against Prox1 | inactive: 1.93
GCAGAAACAAGGUUGAGAATT against Tgm6 | inactive: 0.383
GGGAGCUGUUAACCUCAUCTT against Mthfr | inactive: -0.244
GCACAAAUUCAUCACACGATT against Stk25 | inactive: 0.353
GCCUCUCGGUUAAUUGAUCTT against Xlkd1 | inactive: 0.769
CGGAACCUUACAUUAAAUGTT against Tada2l | inactive: 0.154
GGCUGAAGAACUCCUACAATT against 4432409M07Rik | inactive: -0.763
GGAGUUCCUCAUGAAGAUGTT against 6030446N20Rik | inactive: -0.494
GGAGCUCCAGCUUCUUGAATT against E130309D02Rik | inactive: -1.97
GCCCUGUACAGUCAGUACATT against 2510003E04Rik | inactive: 1.13
GGAUCUCAAGAGUGUUGUUTT against Rnf10 | inactive: -1.04
GGAGUUUGAGGAAGAUCUGTT against Rbp1 | inactive: 0.352
GGCCUCACUUGGAUCCUUATT against Zfx | inactive: 0.224
GGACUAGAUAUCACUUUUUTT against Mgea5 | inactive: -0.215
GGAUAUCCCAUCUCCUGUUTT against D1Wsu40e | inactive: -1.76
GGACACUUACGUCAUCGAGTT against Rtcd1 | inactive: 0.282
GGAUAAAACCAGAACUCUATT against Syt10 | inactive: 1.98
GCGGACCACCAUUAUCCUUTT against 2010003I19Rik | inactive: -0.497
GGUCACUGUGCAAUGAAAATT against Olfr435 | inactive: -0.172
GGGCUUUUUCUUGUUUUUCTT against 6720456B07Rik | inactive: 0.221

Sequence | z-score
GGAGAGACGUAAGAGGCGATT against U2af1-rs2 | inactive: -0.975
GGAUCAUGGGUAUGGUACUTT against Dhx36 | inactive: -0.384
CGGAUUAUUGGUUAGAAAUTT against C230013L11Rik | inactive: -0.272
GCCCAACACUUGUUAAAGCTT against Fdxr | inactive: -0.342
GCCGAGCUCAAUGUGGGUATT against Bsn | inactive: -0.182
CUUCUGAAUCCAGUGCCCATT against AI316787 | inactive: 0.797
CCUGUUGCUUACAAUUUUUTT against Yy1 | inactive: 1.54
GGACAACAACGAGACCUAATT against Osbpl11 | inactive: -0.454
GGAGAUCUAUGACAAGAAATT against Idh1 | inactive: 1.11
GGCGCAUGUUUCCAGCAAUTT against Tbx18 | inactive: 1.87
GCAUUAUUCAUAUGUUGGUTT against Fpr-rs4 | inactive: -0.102
GGACCACUUUUUCAGACUCTT against Garnl1 | inactive: -1.01
GGCUUUUCUGGCUAUCCACTT against Anxa7 | inactive: -1.47
GGAUCUUGAACAAACCUGGTT against Akr1b3 | inactive: 0.754
GCCGACAGAUUGAAAUUCGTT against Supv3l1 | inactive: -0.911
GAAAAAUCAAAGAGAUUGGTT against Slc26a11 | inactive: 0.244
GGAAAACAUGUUCUCAUCUTT against 4930433N12Rik | inactive: 1.53
GGAAACAUGAUGUUUUAAGTT against Bcl9 | inactive: 1.41
GGCCAUGACGAGGAAGAUGTT against Sv2b | inactive: 0.312
GCAGCUUAUCUACCUGUACTT against Chad | inactive: -0.751
GGAUUUGACCGUAAAAAGATT against Pcsk2 | inactive: -0.417
GGCAGGUGAAUGUGGUAGATT against 1500005I02Rik | inactive: -0.0858
GGCAUCGAGAUUUAAUUGATT against Usp27x | inactive: -0.851

As a short view, part of the list above:
Sequence | z-score
GGAAAACAUGUUCUCAUCUTT against 4930433N12Rik | inactive: 1.53
GGAAACAUGAUGUUUUAAGTT against Bcl9 | inactive: 1.41

Continuation:

Sequence | z-score
GAUAUAGCCACAGUGUUUUTT against V1ri2 | inactive: -0.0251
GGAGACUCUUCAAUUGAGCTT against 1700025K23Rik | inactive: -0.0959
CGUACUAUAUCAAAGAACATT against Ssa2 | inactive: -0.301
GGCUCAAAGUCCUCAGAGCTT against Atp6v1e1 | inactive: -0.25
GGACACAGAAAAAGUUGAATT against Tbc1d4 | inactive: 1.47
GCAUAUGACACCGUAUCAGTT against Gprc5d | inactive: 1.91
GGCCAAAAGAACAAGGUUCTT against AW822216 | inactive: 0.118
GGACAACACACCAUUUCUCTT against Pcbp1 | inactive: -1.6
GGACUUCGUGAACAAGAUCTT against Grin2b | inactive: -0.244
GGUGAUUGACACCAAAUCUTT against Slk | inactive: -0.398
GCAAUUUCCAGAAGUUAUCTT against Baz2a | inactive: 0.0352
GGACUGGUUCACUUUGUGGTT against Cox7a2l | inactive: 2.76
GGAAGAUUCAUGAGAUAUUTT against Prdm5 | inactive: -1.24
CCCAGUAAUAUGAAAAGAGTT against Gucy2f | inactive: 0.464
CGGACUUGAGAGCAGAACCTT against Oit1 | inactive: -0.929
GCUAGAUAUCCGGAACCAATT against 1500032D16Rik | inactive: 0.192
GCACACUCACUUGGUUCGUTT against Dsg2 | inactive: 2.21
CGGUGUUCAACUGCACUUUTT against Thsd1 | inactive: 0.977
CCUCAUGGAUGUUCGUAGATT against P2ry10 | inactive: 0.121
GGUUGCACAAAAGAAGCUGTT against Pemt | inactive: -0.0239
GGAUUCAGGAGUUCAUUGATT against Maea | inactive: -1.09

Shown field by field: entries from further up.
GCUCAACAAGGAUACGGUGTT against Tnfrsf11a
  z-score: inactive: -1.79
GGGAGCUGUUAACCUCAUCTT against Mthfr
  z-score: inactive: -0.244
GGAUCUCAAGAGUGUUGUUTT against Rnf10
  z-score: inactive: -1.04
GGAUCAUGGGUAUGGUACUTT against Dhx36
  z-score: inactive: -0.384
